These are yes or no findings as the source states them, for the method shown. Binding seen in cells or lysates may run through a third protein. Some results given as binding are weak or reduced against the parent protein; the word gives no strength.

Sequences of proteins named here, by UniProt entry; tags and fusion partners are left off.
UniProt P31751: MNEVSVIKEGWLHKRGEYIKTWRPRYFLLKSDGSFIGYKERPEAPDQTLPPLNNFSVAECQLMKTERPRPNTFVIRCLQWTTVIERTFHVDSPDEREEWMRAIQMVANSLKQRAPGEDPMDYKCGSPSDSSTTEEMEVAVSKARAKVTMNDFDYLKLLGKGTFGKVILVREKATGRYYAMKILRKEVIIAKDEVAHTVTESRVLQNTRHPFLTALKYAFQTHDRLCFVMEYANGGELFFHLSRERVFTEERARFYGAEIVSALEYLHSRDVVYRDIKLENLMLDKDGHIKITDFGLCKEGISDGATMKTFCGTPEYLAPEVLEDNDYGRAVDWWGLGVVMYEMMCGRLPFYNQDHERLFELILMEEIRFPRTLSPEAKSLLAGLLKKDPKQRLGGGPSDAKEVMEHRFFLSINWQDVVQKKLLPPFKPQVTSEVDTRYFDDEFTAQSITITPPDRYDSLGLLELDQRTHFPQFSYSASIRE
UniProt O43524: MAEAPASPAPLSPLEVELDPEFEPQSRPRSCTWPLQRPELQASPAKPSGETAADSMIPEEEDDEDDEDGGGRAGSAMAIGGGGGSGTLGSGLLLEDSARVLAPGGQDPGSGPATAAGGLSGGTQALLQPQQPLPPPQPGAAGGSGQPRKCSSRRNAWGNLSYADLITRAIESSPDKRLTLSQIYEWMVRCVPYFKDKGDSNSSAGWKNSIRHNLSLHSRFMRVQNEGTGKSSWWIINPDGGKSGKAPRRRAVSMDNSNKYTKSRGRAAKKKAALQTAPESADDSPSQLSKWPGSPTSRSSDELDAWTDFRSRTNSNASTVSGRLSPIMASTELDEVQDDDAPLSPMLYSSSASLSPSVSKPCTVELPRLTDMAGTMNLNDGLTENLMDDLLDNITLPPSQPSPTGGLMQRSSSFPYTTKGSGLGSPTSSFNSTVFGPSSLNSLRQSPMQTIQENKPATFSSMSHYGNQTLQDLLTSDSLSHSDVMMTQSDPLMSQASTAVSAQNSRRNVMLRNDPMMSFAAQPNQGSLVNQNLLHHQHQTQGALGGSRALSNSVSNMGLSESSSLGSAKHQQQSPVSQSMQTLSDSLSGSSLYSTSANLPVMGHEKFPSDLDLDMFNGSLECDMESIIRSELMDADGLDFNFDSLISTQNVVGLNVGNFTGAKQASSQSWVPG
UniProt P31749: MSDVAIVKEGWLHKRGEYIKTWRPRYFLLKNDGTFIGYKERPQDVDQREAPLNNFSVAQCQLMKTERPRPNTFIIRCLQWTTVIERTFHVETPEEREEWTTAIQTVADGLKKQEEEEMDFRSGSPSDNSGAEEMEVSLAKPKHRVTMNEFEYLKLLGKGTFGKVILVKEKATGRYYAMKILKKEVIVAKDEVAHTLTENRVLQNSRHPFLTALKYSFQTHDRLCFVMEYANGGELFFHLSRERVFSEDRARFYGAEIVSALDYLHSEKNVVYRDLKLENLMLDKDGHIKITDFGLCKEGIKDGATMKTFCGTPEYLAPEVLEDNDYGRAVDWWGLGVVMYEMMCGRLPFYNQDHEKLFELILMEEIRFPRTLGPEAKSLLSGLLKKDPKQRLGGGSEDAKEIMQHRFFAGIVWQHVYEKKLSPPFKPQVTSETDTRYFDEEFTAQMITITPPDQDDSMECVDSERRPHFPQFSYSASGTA

Results on four substances are retold here after publication PMC6312545.

One experiment has as its target Flag-Akt2 (UniProt P31751). In words: co-IP; reciprocal: HEK293T co-transfected with MYC-FoxO3a and Flag-Akt1 or Flag-Akt2; RIPA lysate; immunoprecipitated with anti-Flag antibody (legend: Akt1/Akt2 immunoprecipitation), protein G PLUS-Agarose; blotted for FoxO3a.
Experiment [1] concerns the target endogenous FoxO3a (human (endogenous in Jurkat)) (UniProt O43524). In words: co-IP; endogenous proteins of Jurkat T-ALL cells; FoxO3a immunoprecipitated, blotted for Akt1 or Akt2.
Another experiment has as its target MYC-FoxO3a (UniProt O43524). Nature of the experiment: co-IP; HEK293T co-transfected with MYC-FoxO3a and Flag-Akt1 or Flag-Akt2; RIPA lysate 24 h later; immunoprecipitated with anti-MYC antibody, protein G PLUS-Agarose, four washes with lysis buffer; blotted with anti-MYC and anti-Akt1 or Akt2.

On to MYC-FoxO3a (from UniProt O43524 1-673), for which, in the experiment with Flag-Akt2, the binding result is given as “binds”. In the case of “Akt2 (endogenous, Jurkat) (from UniProt P31751 1-481) (enzyme)”, in experiment [1], the binding result is “binds”. Consider “Flag-Akt1 (from UniProt P31749 1-480) (enzyme)”, for which the binding entry with MYC-FoxO3a is “binds”. As for “Flag-Akt2 (from UniProt P31751 1-481) (enzyme)”, in the experiment with MYC-FoxO3a, the binding result was “binds”.
